Measurements reported in PubChem BioAssay AID434947 (Broad Institute, 2010).
Out of some 2,200 compounds screened, about 15 (0.7%) were called active.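 How the source made its calls: active means fitted half-maximal concentration for loss of luminescence signal no more than a set limit of log units above the top tested concentration; inconclusive means flat fit with 30 to 70% signal loss, or invalid fit; inactive means half-maximal concentration above that set limit.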 The list shows a part of the results.

Assay: ADP-Glo luciferase signal interference – biochemical, luminescence, cell-free, homogeneous, artefact control for GSK3beta inhibitor project, dose response (AID 434947);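 further: kinase-free counter screen of ADP-Glo detection reagents for GSK3beta hits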
Details: Cell-free ADP-Glo reagents, 5 uM ADP

EC50, inactive:
Cc1cccc(COc2ccc(/C=N/NC(=O)c3nnn(-c4nonc4N)c3CN3CCCCC3)cc2)c1 > 30 µM
O=C(Nc1cccc(-c2cnc3ccccc3n2)c1)c1ccccc1 > 30 µM
O=C(Nc1ccccc1)Nc1ncc([N+](=O)[O-])s1 > 30 µM
COc1cccc(NC(=O)NNS(=O)(=O)c2ccc(OC)cc2OC)c1 > 30 µM
O=C(Nc1ccccc1)Nc1ccccn1 > 30 µM
O=C1OCCC1Sc1nnc(-c2ccc(O)cc2)o1 (configuration not stated) > 30 µM
CC1(C)Nc2ccc(O)cc2-c2c1ssc2=S > 30 µM
Nc1nonc1-n1nnc(C(=O)N/N=C/c2cccc(F)c2)c1CN1CCCCCC1 > 30 µM
COc1cccc(/C=C2/Sc3ccc(C(=O)NCCCN4CCCC4)cc3NC2=O)c1 > 30 µM
CN1CC(=O)Nc2ccc([N+](=O)[O-])cc2C1=O > 30 µM
COc1ccccc1-c1cc2ccccc2[nH]1 > 30 µM
CN1CCc2c(sc3c2c(=O)n(-c2ccc(Cl)cc2)c2nncn32)C1 > 30 µM
COc1cccc(N(CC(=O)NCC2CCCO2)C(=O)CCC(=O)Nc2nccs2)c1 (configuration not stated) > 30 µM
CN1CCc2c(sc3c2c(=O)n(-c2ccccc2)c2nncn32)C1 > 30 µM
O=c1[nH]cnc2c1ncn2[C@@H]1O[C@H](CO)[C@@H](O)[C@H]1O > 30 µM
COc1cc(/C=C2\Oc3cc(O)ccc3C2=O)ccc1O > 30 µM
Cc1ccc(-c2nn(-c3ccccc3)cc2CO)cc1 > 30 µM
CCOc1ccc(-c2nnc3ccc(SC)nn23)cc1 > 30 µM
COc1ccc(Nc2oc(COc3ccccc3F)nc2C#N)cc1 > 30 µM
O=C(O)c1cccc(-c2ccc(/C=N/Nc3ccc([N+](=O)[O-])cc3)o2)c1 > 30 µM
COCCCNc1nc(N)c([N+](=O)[O-])c(NCc2ccccc2)n1 > 30 µM
Cn1c(=S)n(CCC(=O)O)c2ccccc21 > 30 µM
COc1ccc(/C=C2\SC(=NCc3ccccc3)NC2=O)cc1 > 30 µM
CN(C)c1ccc(N=Nc2ccc(S(N)(=O)=O)cc2)cc1 > 30 µM
Nc1nc(NCCCN2CCOCC2)nc(Nc2ccc(Cl)cc2)c1[N+](=O)[O-] > 30 µM
Oc1ccc(/C=N/Nc2ncc(Br)cn2)c(O)c1 > 30 µM
COc1cc(C(=O)NC(=S)N(CCc2ccccc2)CCc2ccccc2)cc(OC)c1OC > 30 µM
O=C(O)c1cccc(Nc2nc(-c3ccccc3)nc3ccccc23)c1 > 30 µM
c1ccc(-n2cnnc2SCc2cn3cccnc3n2)cc1 > 30 µM
Fc1ccc(CSc2nnc(-c3cccs3)o2)cc1 > 30 µM
COc1ccc(-c2nnc(NC(=O)C3=COCCO3)o2)cc1 > 30 µM
Cn1c(=O)c2[nH]c(CN3CCN(Cc4ccccc4)CC3)nc2n(C)c1=O > 30 µM
Cc1cccc(CSc2ccc3nnc(-c4cccs4)n3n2)c1 > 30 µM
C/C(=N\NC(=O)c1ccc(C(=O)N/N=C(\C)c2ccco2)o1)c1ccco1 > 30 µM
O=C(Nc1cccc2c1C(=O)NC2=O)c1cccnc1Cl > 30 µM
COCCn1c(SCC(=O)Nc2ccccc2OC)nc2ccccc21 > 30 µM
Cc1c(CN(C)C)c2c(n1C)C(=O)c1ccc(Br)cc1-2 > 30 µM
Nc1nc(Nc2ccccc2)sc1C(=O)c1ccccc1 > 30 µM
S=c1[nH]c(-c2ccccc2)cn1/N=C/c1ccncc1 > 30 µM
COCc1c(C(N)=O)nnn1-c1nonc1N > 30 µM
NC(=O)c1c(NC(=O)CCCn2cnc([N+](=O)[O-])n2)sc2c1CCCC2 > 30 µM
CCOc1ccc2c(c1)C(=O)C(=O)N2CC1COc2ccccc2O1 (configuration not stated) > 30 µM
Cc1ccccc1NC(=O)CN1C(=O)c2ccccc2C1=O > 30 µM
CCOc1cc(C2C3=C(CC(C)(C)CC3=O)Nc3n[nH]c(C)c32)ccc1O (configuration not stated) > 30 µM
COCCn1c(SCC(=O)NC(=O)NCc2ccccc2)nc2ccccc21 > 30 µM
COc1cccc(NC(=O)CN(C)C(=O)c2cc(-c3ccc(F)cc3)nc3ccccc23)c1 > 30 µM
Cc1ccc(Nc2nc(NCCCN3CCOCC3)nc(N)c2[N+](=O)[O-])cc1 > 30 µM
CC(C)=CCc1c(O)ccc(C2COc3c(CC=C(C)C)c(O)cc(O)c3C2=O)c1O (configuration not stated) > 30 µM
NS(=O)(=O)c1ccc(-c2ccc(/C=C3\NC(=S)NC3=O)o2)cc1 > 30 µM
Cc1ccc(-c2nn(-c3ccccc3)cc2/C=N/O)cc1 > 30 µM
O=C(CSc1n[nH]c(=O)[nH]c1=O)c1ccc(Cl)cc1Cl > 30 µM
CCN1/C(=C/c2ccc3cccc(C)c3[n+]2CC)Sc2ccccc21 > 30 µM
CC(=O)Nc1ccc(S(=O)(=O)Nc2ccc3c(c2)OCCO3)cc1Cl > 30 µM
Nc1ncnc2c1ncn2[C@@H]1O[C@H](CO)[C@@H](O)[C@@H]1O > 30 µM
Cc1ccc(-c2nn(-c3ccccc3)cc2/C=N/NC(=O)c2ccc(Br)o2)cc1 > 30 µM
COc1ccc(-c2cc(-c3ccco3)[nH]c(=O)c2C#N)cc1 > 30 µM
O=C(NCc1cccs1)c1cc(C2CC2)on1 > 30 µM
CCOc1ccc(N2C(=O)S/C(=C\c3cccn3C)C2=O)cc1 > 30 µM
CCOC(=O)CSc1nnc(-c2cccs2)n1-c1ccccc1 > 30 µM
COc1ccc2c(c1)-c1c(ssc1=S)C(C)(C)N2S(=O)(=O)c1ccc(C)cc1 > 30 µM
Cc1cc(NC(=O)CSc2ccc3nnc(-c4cccs4)n3n2)no1 > 30 µM
CN(C)c1nc(-c2cccnc2)nc(-c2ccccc2)c1C#N > 30 µM
CCOC(=O)c1nnn(-c2nonc2N)c1-c1cccs1 > 30 µM
O=C(COc1ccccc1[N+](=O)[O-])N/N=C/c1ccc(O)cc1 > 30 µM
Cc1oc2ccc(OC(=O)c3cccs3)cc2c1C(=O)OC(C)C > 30 µM
Nc1nonc1-n1nnc(C(=O)N/N=C/c2ccoc2)c1CSc1ccc(Cl)cc1 > 30 µM
CN(Cc1c(C(=O)N/N=C/c2ccccc2F)nnn1-c1nonc1N)c1ccccc1 > 30 µM
O=C(Nc1ccc(-c2nc3ccccc3o2)cc1)c1ccc(N2CCOCC2)c([N+](=O)[O-])c1 > 30 µM
OCC1(Cc2ccccc2)CCN(Cc2ccc(-c3ccco3)cc2)CC1 > 30 µM
COCc1c(C(=O)N/N=C\c2ccccn2)nnn1-c1nonc1N > 30 µM
CCCc1cc(O)c2c(C)cc(=O)oc2c1 > 30 µM
CCOc1ccc2c(c1)C(NC(C)=O)C(=O)N2CCN1CCOCC1 (configuration not stated) > 30 µM
Cc1cc([N+](=O)[O-])c(C)cc1-c1ccc(/C=N/n2cnnc2)o1 > 30 µM
CC1CC(=O)Nc2ccc([N+](=O)[O-])cc2N1C (configuration not stated) > 30 µM
Cc1ccccc1N(CC(=O)N/N=C/c1cc(Br)c(C)o1)S(C)(=O)=O > 30 µM
Cc1cc(C)c2nc(N(CCN(C)C)C(=O)c3ccc(S(=O)(=O)N(C)CC4CCCO4)cc3)sc2c1 (configuration not stated) > 30 µM
CCCCOc1ccc(/C=C/C(=O)OCC(=O)N2CC(=O)Nc3ccccc32)cc1OCC > 30 µM
CC(C)=CCc1cc([C@@H]2CC(=O)c3ccc(O)c(CC=C(C)C)c3O2)ccc1O > 30 µM
CCn1nc(NC(=O)Cc2ccc(OC)cc2)c2cc3cc(C)ccc3nc21 > 30 µM
NNc1nccc(Nc2ccccc2C(=O)O)n1 > 30 µM
CC(C)(C)c1ccc(OCC(=O)NCCN2CCCC2)cc1 > 30 µM
Nc1nonc1-n1nnc(C(=O)N/N=C/c2ccc(Cl)cc2Cl)c1CN1CCCC1 > 30 µM
COc1ccc(C2C3=C(CC(C)(C)CC3=O)Nc3c2c(=O)[nH]c2nc(C)nn32)cc1 (configuration not stated) > 30 µM
CCOC(=O)c1ccc(NC(=O)CN(C)S(=O)(=O)c2ccc(Br)s2)cc1 > 30 µM
Nc1nc(NCCOCCO)nc(Nc2cccc(F)c2)c1[N+](=O)[O-] > 30 µM
CN(C)CCCNc1ccc(-c2cc(Nc3cccc(Cl)c3)ncn2)cn1 > 30 µM
O=[N+]([O-])c1cc(/C=N/O)ccc1SCc1ccccc1 > 30 µM
COc1cc(C2C(C(=O)c3cccs3)=C(O)C(=O)N2CCN2CCOCC2)ccc1OCCC(C)C (configuration not stated) > 30 µM
Nc1ncnc2c1ncn2C1OC(CO)C(O)C1N (configuration not stated) > 30 µM
CN1/C(=C/C=C(/C#N)C(N)=O)C(C)(C)c2ccccc21 > 30 µM
CCOC(=O)CNC(=O)CSc1ccc2nnc(-c3ccc(F)cc3)n2n1 > 30 µM
Cc1ccccc1C1=NC(C(F)(F)F)(C(F)(F)F)c2c(n(C)c(=O)n(C)c2=O)N1 > 30 µM

Quoted at random: 2 compounds from above, in no set order.
EC50, inactive:
CN(C)c1ccc(N=Nc2ccc(S(N)(=O)=O)cc2)cc1 > 30 µM
O=C(Nc1ccccc1)Nc1ccccn1 > 30 µM

Reprinted from the results shown (two entries):
EC50, inactive:
Nc1nonc1-n1nnc(C(=O)N/N=C/c2ccc(Cl)cc2Cl)c1CN1CCCC1 > 30 µM
COc1ccc(C2C3=C(CC(C)(C)CC3=O)Nc3c2c(=O)[nH]c2nc(C)nn32)cc1 (configuration not stated) > 30 µM
